Assay results as given in PubChem BioAssay AID624297 (National Center for Advancing Translational Sciences (NCATS), 2012).
Hit rate of the full screen: of about 340,000 compounds, about 6,200 (1.8%) were called active. Inconclusive means that the source gave no clear call. Such entries were picked first, then a sample of the others. Calls follow the shape of the dose curve; as a rule, active = well fitted activation curve with a large enough effect; inconclusive = small, poorly fitted or top-dose-only effect; inactive = no such curve, though single readings can be large or run the other way. Potencies of inconclusive entries are doubtful fits and often do not repeat.

experiment: A quantitative high throughput screen for small molecules that induce DNA re-replication in SW480 colon adenocarcinoma cells.; also: nearly all actives have a fitted effect of over 55% in size; as to re-replication activation: % of control where 0% means no effect; settings: Hoechst DNA content imaging, 48 h; re-replication activation: at 46.1 µM (top of the series) unless noted
In short: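 Per well, 250 cells were exposed to pinned compound for 48 hr. Nuclear DNA was visualised with Hoechst (40 min, 37 C) and total object intensity recorded by fluorescence scanning.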
Potency is read from the fitted curve at half-maximal effect.

Row | Compound | re-replication activation | Potency
1 | COc1ccc(/C=C/C(=O)NC(=S)Nc2cc3oc4ccccc4c3cc2OC)cc1 | inactive: 1.6% | –
2 | CN(C(=O)COc1ccc2c(-c3ccccc3)cc(=O)oc2c1)C1CCS(=O)(=O)C1 (stereo not given) | – | active: 13 µM
3 | Cc1ccccc1N1CCN(CCC(=O)Nc2ccc(F)cc2)CC1 | inactive: 18.4% | –
4 | Cc1ccc(N(NC(=O)C(O)(c2ccccc2)c2ccccc2)C(=O)CCl)cc1 | – | active: 18.4 µM
5 | CCOc1cc(S(=O)(=O)n2cc(-c3ccc(F)cc3)c(N)n2)cc(OCC)c1OCC | – | inconclusive: 23.1 µM [activator, partial curve, poor fit]
6 | COc1ccc(Nc2nc(-c3ccccc3)c(C(=O)Nc3cccnc3)s2)cc1 | – | inconclusive: 29.1 µM [activator, single point]
7 | O=C(NNC(=O)C1CCN(c2ncccn2)CC1)c1ccc(F)cc1 | inactive: -20.2% | –
8 | Cc1nc(NC(=O)C23CC4CC(CC(C4)C2)C3)sc1Cc1ccc2c(c1)OCO2 | – | inconclusive: 29.1 µM [activator, single point]
9 | COCCNC(=O)CSc1ccccc1C(=O)NC1CCCc2ccccc21 (stereo not given) | inactive: -17.4% | –
10 | COc1cccc(C(=O)OCC(=O)Nc2cc(C)c(C)cc2[N+](=O)[O-])c1 | – | inconclusive: 0.58 µM [activator, full curve, poor fit]
11 | CN(C)S(=O)(=O)c1cccc(NC(=S)NC23CC4CC(CC(C4)C2)C3)c1 | – | inconclusive: 23.1 µM [activator, single point]
12 | CCCc1cc(NC(=O)CCl)n(-c2ccccc2)n1 | – | inconclusive: 20.6 µM [activator, partial curve]
13 | CN1C(=O)/C(=C/c2ccc(OCc3ccc(F)cc3)cc2)N(C)C1=S | – | inconclusive: 3.26 µM [activator, partial curve, poor fit]
14 | O=C(COC(=O)c1ccc2c(c1[N+](=O)[O-])C(=O)c1ccccc1C2=O)NC1CC1 | – | inconclusive: 23.1 µM [activator, single point]
15 | Cc1cc2cc(C)c(NCCNC(=O)c3ccccc3Cl)nc2cc1C | – | inconclusive: 29.1 µM [activator, single point]
16 | Fc1ccc2c(c1)c1n[nH]c(=S)nc1n2CCc1ccccc1 | – | inconclusive: 1.16 µM [activator, full curve, poor fit]
17 | Cc1ccc(-n2[nH]c(C)c(C=Nc3ccc4[nH]c(=O)[nH]c4c3)c2=O)cc1 | – | inconclusive: 29.1 µM [activator, single point]
18 | O=C(CSc1nc2c(c(=O)[nH]1)CN(Cc1ccc(F)cc1)CC2)Nc1ccc(F)cc1 | – | inconclusive: 6.51 µM [activator, single point]
19 | COc1ccc(NC2CCCN(C(=O)c3cccc(C)n3)C2)cc1OC (stereo not given) | – | inconclusive: 18.4 µM [activator, single point]
20 | Cc1ccc(NC(=O)CN2CCN(Cc3ccccc3)CC2)c(Br)c1 | – | inconclusive: 0.164 µM [activator, full curve, poor fit]
21 | Brc1ccc2c(c1)C(C1=NCCN1)c1ccccc1CS2 (stereo not given) | – | inconclusive: 1.03 µM [activator, full curve, poor fit]
22 | CCOCCCn1c(=S)[nH]c2cc(C(=O)NCc3ccc(F)cc3)ccc2c1=O | – | inconclusive: 29.1 µM [activator, partial curve, poor fit]
23 | O=C(C[C@H]1C/C=C\C[C@H](NC(=O)OCC2c3ccccc3-c3ccccc32)C(=O)OC[C@H](Cc2ccccc2)NC1=O)N[C@H](CO)Cc1ccccc1 | – | inconclusive: 32.6 µM [activator, partial curve, poor fit]
24 | CN(C1CCCCC1)S(=O)(=O)c1ccc(C(=O)Nc2sc3c(c2C(N)=O)CC(C)(C)NC3(C)C)cc1 | – | inconclusive: 20.6 µM [activator, single point]

Row | Compound | re-replication activation | Potency
25 | C=C1CCC[C@]2(C)C[C@H]3OC(=O)C(CN(C)CC(OC)OC)[C@H]3CC12 (stereo not given in full) | – | inconclusive: 23.1 µM [activator, partial curve, poor fit]
26 | CN(C)c1ccc(/C=N/Nc2nc3ccccc3o2)cc1 | – | inconclusive: 16.4 µM [activator, partial curve, poor fit]
27 | COc1ccc(NC(=O)/C=C/c2ccc(OC(F)F)cc2)cn1 | – | inconclusive: 4.61 µM [activator, single point]
28 | CCNC(=O)COC(=O)c1ccc(-c2nc3ccccc3s2)s1 | – | inconclusive: 29.1 µM [activator, single point]
29 | O=C(OCC(=O)N1N=C(c2ccc(Cl)cc2)CC1c1ccco1)c1cccnc1 (stereo not given) | inactive: 14.2% | –
30 | O=C(Nc1ccccc1)c1cc(-c2ccccc2Cl)no1 | inactive: 29.4% | –
31 | O=C(N/N=C/c1cccc(Br)c1)C1CC(=O)N(c2ccccc2)C1 (stereo not given) | – | inconclusive: 29.1 µM [activator, partial curve, poor fit]
32 | O=C(Cc1ccc(Cl)cc1)Nc1ccccn1 | – | inconclusive: 29.1 µM [activator, single point]
33 | Brc1cccc(OCCCNC2CCCC2)c1 | inactive: -1.39% | –
34 | CCOc1ccc(C(C)=O)cc1N1C(=O)C2C3C=CC(C3=C(C)C)C2C1=O (stereo not given) | inactive: -8.55% | –
35 | COC(=O)CCn1c(C)cc(C(=O)COc2ccccc2C(N)=O)c1C | inactive: -7.26% | –
36 | O=C(c1ccc([N+](=O)[O-])o1)N1CCCCCC1 | – | inconclusive: 29.1 µM [activator, single point]
37 | Cc1cccc2c1CC(C)(C)NC2=C(C#N)C#N | inactive: -0.36% | –
38 | Cc1ccccc1C(=O)NC(=S)N(Cc1ccccc1)c1ccccn1 | inactive: -10.3% | –
39 | Cc1c(CN2CCC(C(=O)Nc3ccc(Oc4ccccc4)nc3)CC2)cnn1C | – | inconclusive: 29.1 µM [activator, single point]
40 | CCCC1S/C(=N/N=C/c2ccc(OC)cc2)N(Cc2ccccc2)C1=O (stereo not given) | inactive: -3.27% [at 9.22 µM] | –
41 | O=[N+]([O-])c1cccc(-c2nc(-c3cccs3)c(-c3cccs3)[nH]2)c1 | – | inconclusive: 32.6 µM [activator, partial curve, poor fit]
42 | CCn1c(SCC(=O)c2cccs2)nnc1-c1cccs1 | – | inconclusive: 6.51 µM [activator, single point]
43 | COc1ccc(CCN(C(=O)c2snc(C(N)=O)c2N)C(C)C(=O)NC2CCCCC2)cc1OC (stereo not given) | inactive: 10.4% | –
44 | N#Cc1sc2nc(-c3cccs3)cc(-c3ccc(F)cc3)c2c1N | – | inconclusive: 5.8 µM [activator, full curve]
45 | Cc1cc(-c2ccc(NC(=O)[C@@H]3CCCC[C@@H]3C(=O)O)c(C)c2)ccc1NC(=O)[C@@H]1CCCC[C@@H]1C(=O)O | – | inconclusive: 0.146 µM [activator, full curve, poor fit]
46 | CC(=NCCCN(C)C)C1=C(O)c2ccccc2C1=O | – | inconclusive: 4.61 µM [activator, single point]
47 | CCc1ccc(CN2C(=O)c3ccccc3C2C(=O)NC(C)CC)cc1 (stereo not given) | inactive: -2.85% | –
48 | O=C(O)C1CCCN1C(=O)NC1CCCCC1 (stereo not given) | inactive: 14.8% | –

Row | Compound | re-replication activation | Potency
49 | CC(C)C(=O)c1cn(CC(=O)O)c2ccccc12 | – | inconclusive: 0.259 µM [activator, full curve, poor fit]
50 | C#CCOc1c(/C=C\c2nc(O)c([N+](=O)[O-])c(=O)[nH]2)cc(Br)cc1OC | inactive: 3.43% | –
51 | Cc1nc(-c2ccccc2)sc1-c1n[nH]c(=S)n1C | – | active: 23.1 µM
52 | CCN1CCN(c2nc3c(C)cccn3c(=O)c2/C=C(\C#N)C(=O)NCCCOC)CC1 | – | active: 20.6 µM
53 | COc1ccc(/C=N/N2CCN(Cc3ccccc3)CC2)cc1 | – | inconclusive: 4.61 µM [activator, partial curve, poor fit]
54 | Cc1cc(N)n(-c2ccc(Oc3ccccc3)c(S(=O)(=O)O)c2)n1 | inactive: 8.62% | –
55 | CCOC(=O)CSc1nc(-c2ccc(OC)cc2)ns1 | inactive: 1.15% | –
56 | O=C(N/N=C/c1c[nH]c2ccccc12)c1cc(-c2cccc3ccccc23)n[nH]1 | – | inconclusive: 25.9 µM [activator, single point]
57 | CC(=O)NC12CC3CC(C1)CC(C(=O)N1CCN(S(=O)(=O)c4cccc(F)c4)CC1)(C3)C2 | inactive: -1.32% | –
58 | Cc1cccc(-c2nnc(SCC(=O)O)n2Cc2ccccc2)c1 | – | inconclusive: 0.259 µM [activator, single point]
59 | CCN(CC)c1ccc2nc3ccc(N)cc3[n+](-c3ccccc3)c2c1 | – | inconclusive: 4.11 µM [activator, full curve, poor fit]
60 | Cc1cccc(OCCn2c(S(=O)(=O)O)nc3ccccc32)c1 | inactive: 3.11% | –
61 | FC(F)(F)c1cccc(N2CCN(C(=S)NC3CCCC3)CC2)c1 | inactive: 6.45% | –
62 | O=C(Nc1ccccc1N1CCN(C(=O)c2ccccc2)CC1)c1ccc(Cl)cc1 | – | inconclusive: 12.6 µM [activator, single point]
63 | Cc1ccsc1/C=C1/SC(=O)N(CC(=O)N2CCOCC2)C1=O | inactive: 2.68% | –
64 | CCN1/C(=C/c2cc[n+](CCCS(=O)(=O)[O-])c3ccccc23)Sc2ccccc21 | inactive: -7.14% | –
65 | CC1CCN(C(=O)N2c3ccccc3Sc3ccccc32)CC1 | inactive: -0.0324% | –
66 | CN(C(=O)c1ccc(NC(=O)Cc2ccc(NC(=O)C3CCN(C(=O)C4CCC4)CC3)cc2)cc1)C1CC1 | inactive: -7.02% | –
67 | CCN(c1ccccc1)S(=O)(=O)c1cc(C(=O)Nc2ccc(Br)cc2)ccc1F | – | inconclusive: 14.6 µM [activator, partial curve, poor fit]
68 | O=c1oc(-c2ccc(O)c(O)c2)cc2cc(O)cc(O)c12 | inactive: 0.135% | –
69 | O=[N+]([O-])c1cc(/C=N/n2c(-c3ccncc3)n[nH]c2=S)ccc1Cl | – | inconclusive: 32.6 µM [activator, partial curve, poor fit]
70 | CCOc1ccccc1NC(=O)C(OC(=O)c1cc(C)oc1C)c1ccccc1 (stereo not given) | – | inconclusive: 20.6 µM [activator, single point]

Reformatted: entries from further up

| Row | Compound | re-replication activation | Potency |
| --- | --- | --- | --- |
| 61 | FC(F)(F)c1cccc(N2CCN(C(=S)NC3CCCC3)CC2)c1 | inactive: 6.45% | – |
| 62 | O=C(Nc1ccccc1N1CCN(C(=O)c2ccccc2)CC1)c1ccc(Cl)cc1 | – | inconclusive: 12.6 µM [activator, single point] |
| 63 | Cc1ccsc1/C=C1/SC(=O)N(CC(=O)N2CCOCC2)C1=O | inactive: 2.68% | – |
